The chains behind the UniProt entries cited, without tags or fusion partners. Residues count along the entry.
UniProt P05231, 30-212: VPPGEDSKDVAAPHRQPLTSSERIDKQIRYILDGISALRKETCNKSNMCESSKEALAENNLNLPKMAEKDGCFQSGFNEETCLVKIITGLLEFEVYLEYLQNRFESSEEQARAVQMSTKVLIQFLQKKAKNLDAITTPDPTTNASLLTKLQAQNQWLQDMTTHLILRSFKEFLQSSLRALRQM

According to patent publication US6706266:

Legend:
interleukin-6 = interleukin-6 (UniProt P05231); assay: activity in cells; settings: no inhibition of IL-6-driven STAT-sPAP reporter in HepG2, purified recombinant protein, dose not given here
[1] = biological target: T1, oncostatin M (hOSM, mature) (Homo sapiens) (UniProt P13725); assay: filter binding; settings: 2'-F pyrimidines; aptamer generated to CD95 ligand, control; purified recombinant protein
T1 sequence: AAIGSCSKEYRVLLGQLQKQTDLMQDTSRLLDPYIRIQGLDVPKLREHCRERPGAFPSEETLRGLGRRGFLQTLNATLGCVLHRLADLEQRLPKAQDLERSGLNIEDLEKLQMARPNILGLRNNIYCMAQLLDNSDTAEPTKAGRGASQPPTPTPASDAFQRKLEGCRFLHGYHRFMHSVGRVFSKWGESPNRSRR

GGGAGGACGAUGCGGAUCGCCCUGAACCGGCCCAGCAGACUGCUGACGGCACGAUCAGACGACUCGCCCGA [ADR58]
functional effect of the aptamer (interleukin-6; 2'-F C and U (2'-F pyrimidines), 2'-OH purines): not active

GGGAGGACGAUGCGGUUAUACUAAGCUGCGGUUAGCGACAGCCCUCCCUAGCGCCUCAGACGACUCGCCCGA [ADR147 (aptamer raised to CD95 ligand)]
Kd [1]: > 1000 nM
functional effect of the aptamer (interleukin-6; 2'-F pyrimidines): not active

For part of these data: No signal at the amounts used counts as a negative. For part of these data: Where a protein sequence is shown, tags need not be part of it.
